Test results published in the supplement of paper PMC10849652.
The other results are listed elsewhere or left out.

The chains behind the UniProt entries cited, without tags or fusion partners. Where a name states a change or a piece, a line headed by the entry shows the natural chain unless it says otherwise.
UniProt Q8TCE6, whole entry, looked up: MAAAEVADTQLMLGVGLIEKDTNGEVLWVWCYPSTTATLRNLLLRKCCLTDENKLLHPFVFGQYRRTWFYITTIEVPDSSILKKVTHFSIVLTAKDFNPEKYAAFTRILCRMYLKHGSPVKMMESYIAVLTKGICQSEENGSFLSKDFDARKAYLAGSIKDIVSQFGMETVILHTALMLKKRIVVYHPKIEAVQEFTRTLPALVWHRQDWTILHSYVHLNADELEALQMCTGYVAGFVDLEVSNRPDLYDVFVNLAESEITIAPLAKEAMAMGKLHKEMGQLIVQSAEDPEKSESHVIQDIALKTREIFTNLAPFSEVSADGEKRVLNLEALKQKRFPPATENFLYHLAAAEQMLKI
UniProt Q6PI48: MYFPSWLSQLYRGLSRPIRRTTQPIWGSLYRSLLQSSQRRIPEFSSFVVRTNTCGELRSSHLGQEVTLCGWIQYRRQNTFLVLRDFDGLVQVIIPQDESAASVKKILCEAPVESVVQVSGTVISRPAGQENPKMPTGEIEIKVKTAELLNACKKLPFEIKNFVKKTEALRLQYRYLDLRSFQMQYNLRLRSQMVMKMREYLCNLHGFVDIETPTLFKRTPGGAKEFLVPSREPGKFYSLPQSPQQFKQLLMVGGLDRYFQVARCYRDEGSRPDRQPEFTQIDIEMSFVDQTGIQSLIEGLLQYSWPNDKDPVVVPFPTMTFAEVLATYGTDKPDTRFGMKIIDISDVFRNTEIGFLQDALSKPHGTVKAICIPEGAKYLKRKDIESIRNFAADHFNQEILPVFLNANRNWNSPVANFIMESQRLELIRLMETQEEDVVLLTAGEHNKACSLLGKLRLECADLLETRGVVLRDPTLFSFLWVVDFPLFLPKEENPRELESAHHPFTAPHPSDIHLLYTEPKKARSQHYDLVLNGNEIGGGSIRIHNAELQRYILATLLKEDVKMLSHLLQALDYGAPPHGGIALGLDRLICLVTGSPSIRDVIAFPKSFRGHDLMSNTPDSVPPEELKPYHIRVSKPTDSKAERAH
UniProt Q9UER7, whole entry, looked up: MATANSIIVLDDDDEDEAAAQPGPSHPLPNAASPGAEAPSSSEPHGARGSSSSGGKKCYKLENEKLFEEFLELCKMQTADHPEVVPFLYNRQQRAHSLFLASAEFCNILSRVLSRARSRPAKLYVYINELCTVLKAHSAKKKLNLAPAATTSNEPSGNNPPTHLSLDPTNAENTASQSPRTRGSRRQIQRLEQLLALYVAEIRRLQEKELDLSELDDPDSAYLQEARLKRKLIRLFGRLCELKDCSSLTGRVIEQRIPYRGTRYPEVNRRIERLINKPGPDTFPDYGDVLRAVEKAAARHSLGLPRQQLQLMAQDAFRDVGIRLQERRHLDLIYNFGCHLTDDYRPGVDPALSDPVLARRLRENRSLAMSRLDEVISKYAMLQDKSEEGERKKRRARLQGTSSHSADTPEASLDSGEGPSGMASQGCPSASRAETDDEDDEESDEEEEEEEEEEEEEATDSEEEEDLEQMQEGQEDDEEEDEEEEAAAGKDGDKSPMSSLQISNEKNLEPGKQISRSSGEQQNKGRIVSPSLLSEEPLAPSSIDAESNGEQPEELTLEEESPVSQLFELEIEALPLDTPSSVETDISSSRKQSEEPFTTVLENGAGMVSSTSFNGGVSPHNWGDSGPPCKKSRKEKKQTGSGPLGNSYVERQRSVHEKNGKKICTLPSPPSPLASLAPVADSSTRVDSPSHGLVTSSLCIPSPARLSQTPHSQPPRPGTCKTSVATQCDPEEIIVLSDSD
UniProt Q9Y315: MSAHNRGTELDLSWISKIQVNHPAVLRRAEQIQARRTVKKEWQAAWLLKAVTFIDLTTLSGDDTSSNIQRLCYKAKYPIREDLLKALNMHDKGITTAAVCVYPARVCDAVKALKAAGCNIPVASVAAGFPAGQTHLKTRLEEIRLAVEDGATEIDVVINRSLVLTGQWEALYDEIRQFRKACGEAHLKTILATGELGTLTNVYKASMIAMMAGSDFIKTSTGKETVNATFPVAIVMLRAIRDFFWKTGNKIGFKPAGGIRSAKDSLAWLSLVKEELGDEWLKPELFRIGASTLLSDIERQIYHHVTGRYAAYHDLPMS
UniProt Q92564: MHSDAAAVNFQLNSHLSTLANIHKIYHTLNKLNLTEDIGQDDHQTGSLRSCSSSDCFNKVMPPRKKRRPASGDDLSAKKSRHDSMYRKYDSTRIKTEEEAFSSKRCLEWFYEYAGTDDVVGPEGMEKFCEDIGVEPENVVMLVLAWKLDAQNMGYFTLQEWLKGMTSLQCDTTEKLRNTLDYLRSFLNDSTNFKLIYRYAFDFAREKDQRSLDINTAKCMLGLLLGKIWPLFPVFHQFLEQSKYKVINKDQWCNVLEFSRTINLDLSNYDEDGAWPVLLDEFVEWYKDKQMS
UniProt Q8NEL9: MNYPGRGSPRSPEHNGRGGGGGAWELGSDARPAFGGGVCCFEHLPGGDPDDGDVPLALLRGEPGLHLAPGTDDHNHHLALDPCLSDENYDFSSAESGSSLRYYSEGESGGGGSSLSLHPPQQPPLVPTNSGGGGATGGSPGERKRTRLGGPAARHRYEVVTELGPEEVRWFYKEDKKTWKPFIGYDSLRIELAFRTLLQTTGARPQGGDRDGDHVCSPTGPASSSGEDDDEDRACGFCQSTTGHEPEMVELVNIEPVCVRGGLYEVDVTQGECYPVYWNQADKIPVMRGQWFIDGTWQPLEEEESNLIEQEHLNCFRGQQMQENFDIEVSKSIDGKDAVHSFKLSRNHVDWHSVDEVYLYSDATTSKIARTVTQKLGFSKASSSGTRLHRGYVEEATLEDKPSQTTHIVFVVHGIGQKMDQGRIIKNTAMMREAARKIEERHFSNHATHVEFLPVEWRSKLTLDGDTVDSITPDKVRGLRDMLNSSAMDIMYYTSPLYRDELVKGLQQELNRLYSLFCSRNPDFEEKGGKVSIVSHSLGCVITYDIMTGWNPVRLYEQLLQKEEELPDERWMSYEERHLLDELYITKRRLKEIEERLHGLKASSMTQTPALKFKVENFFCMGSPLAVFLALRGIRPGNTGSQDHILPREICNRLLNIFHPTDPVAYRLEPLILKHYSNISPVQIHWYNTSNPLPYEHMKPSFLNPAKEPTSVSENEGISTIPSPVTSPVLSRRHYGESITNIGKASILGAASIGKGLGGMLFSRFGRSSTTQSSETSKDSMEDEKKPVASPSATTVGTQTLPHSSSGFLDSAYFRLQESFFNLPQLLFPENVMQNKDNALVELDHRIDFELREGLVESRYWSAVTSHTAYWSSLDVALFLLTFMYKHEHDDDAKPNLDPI
UniProt P26196: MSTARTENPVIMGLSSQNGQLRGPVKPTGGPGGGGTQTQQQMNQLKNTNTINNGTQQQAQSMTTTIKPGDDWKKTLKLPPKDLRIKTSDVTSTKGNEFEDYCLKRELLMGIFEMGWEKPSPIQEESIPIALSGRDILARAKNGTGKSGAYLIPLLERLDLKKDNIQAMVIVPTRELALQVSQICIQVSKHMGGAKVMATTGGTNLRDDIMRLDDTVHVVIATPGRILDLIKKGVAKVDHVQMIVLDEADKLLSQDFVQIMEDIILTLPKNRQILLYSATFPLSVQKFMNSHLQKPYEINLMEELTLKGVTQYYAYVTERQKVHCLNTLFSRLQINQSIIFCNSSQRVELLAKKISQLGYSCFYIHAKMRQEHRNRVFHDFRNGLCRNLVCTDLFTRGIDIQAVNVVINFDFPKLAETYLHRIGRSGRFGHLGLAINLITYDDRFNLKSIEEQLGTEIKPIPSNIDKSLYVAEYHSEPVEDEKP
UniProt O00571: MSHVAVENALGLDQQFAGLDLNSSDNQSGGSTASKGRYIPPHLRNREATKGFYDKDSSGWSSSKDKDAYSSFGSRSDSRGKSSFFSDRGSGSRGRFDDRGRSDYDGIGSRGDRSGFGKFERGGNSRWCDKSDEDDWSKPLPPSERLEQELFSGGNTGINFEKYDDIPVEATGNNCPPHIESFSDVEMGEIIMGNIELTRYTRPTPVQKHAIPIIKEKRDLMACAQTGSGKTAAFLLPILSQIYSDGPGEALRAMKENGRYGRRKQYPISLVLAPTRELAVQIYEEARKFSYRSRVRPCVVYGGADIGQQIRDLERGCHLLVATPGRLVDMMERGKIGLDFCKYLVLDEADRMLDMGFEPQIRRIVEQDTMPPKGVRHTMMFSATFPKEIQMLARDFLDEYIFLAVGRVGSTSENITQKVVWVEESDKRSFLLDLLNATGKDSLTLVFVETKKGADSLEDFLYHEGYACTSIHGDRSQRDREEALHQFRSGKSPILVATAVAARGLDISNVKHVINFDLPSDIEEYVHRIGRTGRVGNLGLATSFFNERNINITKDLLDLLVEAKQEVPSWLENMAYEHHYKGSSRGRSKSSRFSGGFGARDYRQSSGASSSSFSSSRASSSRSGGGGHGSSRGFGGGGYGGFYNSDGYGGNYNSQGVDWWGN
UniProt Q9NV06: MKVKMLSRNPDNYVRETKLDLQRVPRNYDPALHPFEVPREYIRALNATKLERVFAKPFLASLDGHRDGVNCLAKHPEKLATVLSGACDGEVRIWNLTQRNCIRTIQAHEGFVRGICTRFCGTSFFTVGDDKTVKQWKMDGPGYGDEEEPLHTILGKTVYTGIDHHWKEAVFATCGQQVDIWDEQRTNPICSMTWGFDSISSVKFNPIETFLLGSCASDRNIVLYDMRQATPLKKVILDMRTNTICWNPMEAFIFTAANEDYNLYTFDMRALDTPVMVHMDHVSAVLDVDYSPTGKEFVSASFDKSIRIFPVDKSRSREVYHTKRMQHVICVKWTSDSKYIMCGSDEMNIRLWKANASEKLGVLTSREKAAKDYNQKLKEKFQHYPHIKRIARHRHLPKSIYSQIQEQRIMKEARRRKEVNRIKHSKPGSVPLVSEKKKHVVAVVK
UniProt Q9H4E7, whole entry, looked up: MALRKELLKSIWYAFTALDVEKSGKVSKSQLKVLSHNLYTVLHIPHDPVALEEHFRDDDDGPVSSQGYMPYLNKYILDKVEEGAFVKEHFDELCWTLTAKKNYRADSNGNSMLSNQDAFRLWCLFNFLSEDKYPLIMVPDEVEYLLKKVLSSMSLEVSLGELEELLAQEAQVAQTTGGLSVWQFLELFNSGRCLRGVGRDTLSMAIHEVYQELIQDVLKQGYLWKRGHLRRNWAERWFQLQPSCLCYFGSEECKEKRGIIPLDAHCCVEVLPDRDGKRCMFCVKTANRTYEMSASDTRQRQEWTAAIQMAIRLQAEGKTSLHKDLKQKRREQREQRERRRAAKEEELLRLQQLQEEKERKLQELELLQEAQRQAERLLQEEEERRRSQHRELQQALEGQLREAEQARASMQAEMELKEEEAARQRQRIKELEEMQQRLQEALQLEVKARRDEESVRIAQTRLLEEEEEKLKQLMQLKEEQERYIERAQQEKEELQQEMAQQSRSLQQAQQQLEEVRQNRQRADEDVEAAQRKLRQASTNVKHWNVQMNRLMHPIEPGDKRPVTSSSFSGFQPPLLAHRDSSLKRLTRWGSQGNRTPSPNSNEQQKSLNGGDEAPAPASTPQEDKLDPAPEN
UniProt Q13206, whole entry, looked up: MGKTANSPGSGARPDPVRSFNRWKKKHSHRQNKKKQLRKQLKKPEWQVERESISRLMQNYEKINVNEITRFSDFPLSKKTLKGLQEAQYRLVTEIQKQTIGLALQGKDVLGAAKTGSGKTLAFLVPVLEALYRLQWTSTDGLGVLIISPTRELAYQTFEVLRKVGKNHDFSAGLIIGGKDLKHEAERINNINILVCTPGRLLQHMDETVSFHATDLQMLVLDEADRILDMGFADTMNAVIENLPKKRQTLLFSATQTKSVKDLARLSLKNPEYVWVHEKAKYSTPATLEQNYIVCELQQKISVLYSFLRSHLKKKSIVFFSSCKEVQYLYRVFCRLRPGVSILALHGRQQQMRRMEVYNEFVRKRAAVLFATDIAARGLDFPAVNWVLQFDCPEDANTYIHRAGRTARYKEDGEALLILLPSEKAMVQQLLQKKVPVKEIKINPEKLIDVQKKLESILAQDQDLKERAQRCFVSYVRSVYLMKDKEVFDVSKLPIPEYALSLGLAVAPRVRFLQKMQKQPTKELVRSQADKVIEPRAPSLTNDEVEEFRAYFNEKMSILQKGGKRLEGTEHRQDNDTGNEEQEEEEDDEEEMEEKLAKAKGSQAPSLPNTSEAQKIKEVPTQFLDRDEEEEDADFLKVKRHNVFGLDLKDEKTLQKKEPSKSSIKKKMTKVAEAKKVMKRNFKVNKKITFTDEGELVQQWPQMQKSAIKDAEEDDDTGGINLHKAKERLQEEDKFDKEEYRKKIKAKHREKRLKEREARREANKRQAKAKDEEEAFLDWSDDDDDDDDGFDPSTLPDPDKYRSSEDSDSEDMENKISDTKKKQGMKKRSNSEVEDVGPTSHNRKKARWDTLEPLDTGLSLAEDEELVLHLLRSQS
UniProt P30046: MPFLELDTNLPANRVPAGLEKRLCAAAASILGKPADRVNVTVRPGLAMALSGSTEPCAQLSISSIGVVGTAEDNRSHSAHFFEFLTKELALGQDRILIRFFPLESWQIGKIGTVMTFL

Legend:
Test in all cases: log2 fold change, soluble protein after heating vs DMSO (PISA); higher = thermal stabilisation; K562 lysate, 10 uM; active = over 0.2 and 3.5 SD of the protein, either way, in both replicates (recomputed)
[1] = compound: C#Cc1cccc(Nc2ncnc3cc(OCCOC)c(OCCOC)cc23)c1 [erlotinib]
In short: (§1)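 K562 pellets were dounce-homogenised in PBS pH 7.4 with 1 mM MgCl2, and the crude extract at 1 mg/mL protein was treated with 10 μM compound for 30 min. Aliquots were heated for 3 min across 48°C-58°C, pooled, and brought to 0.5% NP-40 at 4°C; soluble protein was the supernatant after 21,000xg for 90 min. Soluble protein was quantified by TMTpro 16plex LC-MS/MS with channel sums equalised, and reported as log2 fold change in thermal stability against DMSO controls, with values from duplicates.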

[2] = compound: C/C(=N\NC(=O)C1=CC(=CC=C1)S(=O)(=O)N2CCOCC2)/C3=C(C=CC(=C3)Cl)O
In short: as §1

[3] = compound: C1=CC(=CC=C1C2=NC3=C(N2)C=C(C=C3)C(=O)N)OC4=CC=C(C=C4)Cl
In short: as §1

[4] = compound: C1=CC2=C(C=CC(=C2)/C=C\3/C(=O)NC(=NCC4=CC=CS4)S3)N=C1
In short: as §1

[5] = compound: C1=CC2=NC=CN=C2C=C1/C=C/3\C(=O)NC(=O)S3
In short: as §1

[6] = compound: C1=CC=C(C=C1)C2=NC(=C(N2)C3=CC=NC=C3)C4=CC(=C(C=C4)Cl)O
In short: as §1

[7] = compound: C1=CC=C2C(=C1)C3=NNC4=CC=CC(=C43)C2=O
In short: as §1

[8] = compound: C1CCN(C1)C(=O)NC2=CC=CC(=C2)NC3=NC=C(C(=N3)NCCC4=CN=CN4)Br
In short: as §1

[9] = compound: C1CN(CCC1(CC2=CC=C(C=C2)Cl)N)C3=NC=NC4=C3C=CN4
In short: as §1

[10] = compound: C1COCCN1CCN2C3=CC=CC=C3N=C2NC(=O)C4=CC(=CC=C4)[N+](=O)[O-] [IRAK-1-4 Inhibitor I]
In short: as §1

[11] = compound: C=CC(=O)N1CCC[C@@H](n2nc(-c3ccc(Oc4ccccc4)cc3)c3c(N)ncnc32)C1 [ibrutinib]
In short: as §1

[12] = compound: CC(=O)c1cnc2ccc(-c3cc(Cl)c(O)c(Cl)c3)nc2c1N[C@H]1CC[C@H](CN(C)C)CC1
In short: as §1

[13] = compound: CC(C)(C)Cn1c(N)nc2ccc(-c3[nH]c(C(C)(C)C)nc3-c3ccc(F)cc3)nc21 [ralimetinib]
In short: as §1

[14] = compound: CC(C)(O)CC(=O)NCCn1ccc2ncnc(Nc3ccc(Oc4cccc(C(F)(F)F)c4)c(Cl)c3)c21
In short: as §1

[15] = compound: CC(C)C1=C2N=C(C=C(N2N=C1)NCC3=CC=CC=C3)NCCCCCCN
In short: as §1

[16] = compound: CC1=C(C(CC(=O)N1)C2=CC=C(C=C2)C(F)(F)F)C(=O)NC3=C(C=C4C(=C3)C=NN4)F
In short: as §1

[17] = compound: CC1=C(C2=C(C=C1)C(=O)C3=CC=CC=C3N2CCCN)C
In short: as §1

[18] = compound: CC1=C(C=C(C=C1)NC(=O)C2=CC(=CC=C2)C(C)(C)C#N)NC3=CC4=C(C=C3)N=CN(C4=O)C
In short: as §1

[19] = compound: CC1=C(C=C(C=C1)NC(=O)C2=CC(=CC=C2)N(C)C)NC(=O)C3=CC=C(C=C3)O
In short: as §1

[20] = compound: CC1=CC=C(C=C1)SC2=C3C=C(SC3=CN=C2)C(=O)N
In short: as §1

Target	log2 fold change [1]	log2 fold change [2]	log2 fold change [3]	log2 fold change [4]	log2 fold change [5]	log2 fold change [6]	log2 fold change [7]	log2 fold change [8]	log2 fold change [9]	log2 fold change [10]	log2 fold change [11]	log2 fold change [12]	log2 fold change [13]	log2 fold change [14]	log2 fold change [15]	log2 fold change [16]	log2 fold change [17]	log2 fold change [18]	log2 fold change [19]	log2 fold change [20]
DENND10 (UniProt Q8TCE6)	inactive: 0.202	inactive: 0	inactive: -0.039	inactive: -0.026	inactive: -0.02	inactive: 0.039	inactive: -0.031	inactive: -0.044	inactive: 0.014	inactive: 0.039	inactive: -0.027	inactive: 0.019	inactive: -0.022	inactive: -0.066	inactive: -0.006	inactive: -0.024	inactive: 0.027	inactive: 0.095	inactive: -0.047	inactive: -0.021
DARS2 (UniProt Q6PI48)	inactive: 0.043	inactive: -0.078	inactive: 0.016	inactive: 0.045	inactive: 0.049	inactive: -0.042	inactive: -0.039	inactive: -0.06	inactive: 0.01	inactive: 0.024	inactive: 0.003	inactive: -0.006	inactive: 0.048	inactive: 0.024	inactive: 0.014	inactive: -0.008	inactive: -0.03	inactive: -0.035	inactive: 0.035	inactive: -0.002
DAXX (UniProt Q9UER7)	inactive: 0.032	inactive: -0.065	inactive: 0.086	inactive: 0.012	inactive: -0.027	inactive: 0.027	inactive: -0.001	inactive: -0.018	inactive: 0.002	inactive: -0.007	inactive: -0.026	inactive: -0.086	inactive: -0.074	inactive: -0.04	inactive: 0.016	inactive: -0.047	inactive: -0.081	inactive: 0.107	inactive: -0.031	inactive: -0.067
DERA (UniProt Q9Y315)	inactive: -0.008	inactive: 0.008	inactive: 0.028	inactive: 0.014	inactive: 0.015	inactive: 0.001	inactive: 0.019	inactive: 0.013	inactive: 0.023	inactive: 0.002	inactive: -0.011	inactive: 0.008	inactive: 0.008	inactive: -0.032	inactive: 0.013	inactive: -0.01	inactive: -0.037	inactive: 0.033	inactive: -0.008	inactive: -0.017
DCUN1D4 isoform 3 (UniProt Q92564)	inactive: -0.025	inactive: -0.118	inactive: 0.068	inactive: -0.127	inactive: -0.063	inactive: -0.026	inactive: -0.053	inactive: -0.09	inactive: -0.113	inactive: 0.005	inactive: 0.064	inactive: 0.078	inactive: -0.033	inactive: -0.057	inactive: 0.018	inactive: -0.009	inactive: -0.078	inactive: -0.027	inactive: 0.029	inactive: -0.059
DCP2 (UniProt Q8IU60)	inactive: 0.005	inactive: 0.039	inactive: -0.029	inactive: -0.064	inactive: -0.037	inactive: -0.007	inactive: 0.001	inactive: 0.025	inactive: -0.014	inactive: -0.017	inactive: -0.005	inactive: -0.005	inactive: 0.067	inactive: 0.003	inactive: 0.006	inactive: 0.021	inactive: 0.034	inactive: -0.043	inactive: 0.081	inactive: -0.002
DAZAP1 (UniProt Q96EP5)	inactive: -0.017	inactive: 0.008	inactive: 0.03	inactive: 0.023	inactive: 0.026	inactive: 0.017	inactive: -0.047	inactive: 0.02	inactive: -0.004	inactive: 0.012	inactive: -0.031	inactive: -0.011	inactive: -0.124	inactive: 0.133	inactive: -0.023	inactive: -0.062	inactive: -0.015	active: -0.359	inactive: -0.031	inactive: -0.009
DDHD1 (UniProt Q8NEL9)	inactive: -0.036	inactive: 0.02	inactive: -0.046	inactive: -0.145	inactive: 0.113	inactive: -0.01	inactive: 0.043	inactive: -0.018	inactive: 0.218	inactive: 0.044	inactive: -0.021	inactive: -0.002	inactive: 0.028	inactive: -0.117	inactive: 0.057	inactive: 0.054	inactive: -0.13	inactive: 0.017	inactive: -0.032	inactive: -0.01
DDX6 (UniProt P26196)	inactive: -0.03	inactive: -0.012	inactive: 0.032	inactive: 0.007	inactive: -0.007	inactive: -0.009	inactive: -0.009	inactive: -0.038	inactive: 0.025	inactive: 0.011	inactive: -0.018	inactive: -0.028	inactive: 0.013	inactive: -0.007	inactive: -0.022	inactive: -0.016	inactive: 0.019	inactive: -0.011	inactive: 0.005	inactive: -0.009
DCTD isoform 2 (UniProt P32321)	inactive: -0.008	inactive: -0.027	inactive: -0.013	inactive: 0.003	inactive: 0.02	inactive: -0.008	inactive: -0.007	inactive: -0.004	inactive: -0.008	inactive: 0.019	inactive: -0.002	inactive: 0.017	inactive: 0.01	inactive: 0.032	inactive: -0.014	inactive: -0.003	inactive: 0.011	inactive: 0.051	inactive: -0.011	inactive: 0
DDX3X (UniProt O00571)	inactive: -0.019	inactive: -0.016	inactive: -0.004	inactive: 0.001	inactive: 0.006	inactive: 0.059	inactive: -0.054	inactive: 0.022	inactive: -0.003	inactive: -0.012	inactive: -0.01	inactive: 0.021	inactive: -0.048	inactive: -0.03	inactive: -0.016	inactive: 0.016	inactive: -0.023	inactive: 0.011	inactive: 0.038	inactive: 0.044
DCAF13 (UniProt Q9NV06)	inactive: -0.019	inactive: 0.077	inactive: -0.026	inactive: 0.041	inactive: -0.064	inactive: -0.001	inactive: 0.008	inactive: 0.013	inactive: 0.032	inactive: 0.002	inactive: 0.042	inactive: -0.034	inactive: -0.044	inactive: 0.021	inactive: -0.05	inactive: -0.02	inactive: -0.031	inactive: 0.014	inactive: 0.026	inactive: 0.002
DEF6 (UniProt Q9H4E7)	inactive: 0.02	inactive: 0.07	inactive: -0.072	inactive: 0.067	inactive: -0.104	inactive: 0.016	inactive: -0.131	inactive: 0.05	inactive: 0	inactive: 0.019	inactive: 0.016	inactive: -0.007	inactive: 0.098	inactive: -0.014	inactive: 0.022	inactive: 0.028	inactive: -0.024	inactive: -0.026	inactive: 0.066	inactive: -0.001
DDX10 (UniProt Q13206)	inactive: -0.012	inactive: -0.161	inactive: 0.001	inactive: 0.005	inactive: -0.357	inactive: 0.092	inactive: 0.051	inactive: -0.043	inactive: 0.019	inactive: -0.094	inactive: 0.024	inactive: 0.1	inactive: 0.131	inactive: 0.059	inactive: -0.054	inactive: -0.06	inactive: -0.096	inactive: -0.15	inactive: 0.023	inactive: 0.171
DDT (UniProt P30046)	inactive: -0.004	inactive: 0.034	inactive: -0.005	inactive: 0.03	inactive: 0.009	inactive: -0.02	inactive: 0.018	inactive: 0.034	inactive: 0.107	inactive: 0.024	inactive: 0.073	inactive: -0.014	inactive: 0.006	inactive: -0.034	inactive: 0.013	inactive: -0.013	inactive: 0.017	inactive: 0.071	inactive: -0.05	inactive: 0.031
DDX19B (UniProt Q9UMR2)	inactive: 0.028	inactive: 0.022	inactive: 0.025	inactive: -0.004	inactive: 0.016	inactive: 0.011	inactive: -0.014	inactive: 0.014	inactive: -0.005	inactive: 0.001	inactive: -0.02	inactive: 0.002	inactive: 0.018	inactive: -0.026	inactive: -0.009	inactive: -0.009	inactive: -0.02	inactive: 0.018	inactive: 0.017	inactive: 0.004

Fetched one by one from above:
Target	log2 fold change [1]	log2 fold change [2]	log2 fold change [3]	log2 fold change [4]	log2 fold change [5]	log2 fold change [6]	log2 fold change [7]	log2 fold change [8]	log2 fold change [9]	log2 fold change [10]	log2 fold change [11]	log2 fold change [12]	log2 fold change [13]	log2 fold change [14]	log2 fold change [15]	log2 fold change [16]	log2 fold change [17]	log2 fold change [18]	log2 fold change [19]	log2 fold change [20]
DDX6 (UniProt P26196)	inactive: -0.03	inactive: -0.012	inactive: 0.032	inactive: 0.007	inactive: -0.007	inactive: -0.009	inactive: -0.009	inactive: -0.038	inactive: 0.025	inactive: 0.011	inactive: -0.018	inactive: -0.028	inactive: 0.013	inactive: -0.007	inactive: -0.022	inactive: -0.016	inactive: 0.019	inactive: -0.011	inactive: 0.005	inactive: -0.009
DENND10 (UniProt Q8TCE6)	inactive: 0.202	inactive: 0	inactive: -0.039	inactive: -0.026	inactive: -0.02	inactive: 0.039	inactive: -0.031	inactive: -0.044	inactive: 0.014	inactive: 0.039	inactive: -0.027	inactive: 0.019	inactive: -0.022	inactive: -0.066	inactive: -0.006	inactive: -0.024	inactive: 0.027	inactive: 0.095	inactive: -0.047	inactive: -0.021
